{"source": "patent US8673552B2", "about": "“Druggable regions in the dengue virus envelope glycoprotein and methods of using the same” (Children's Medical Center Corporation, priority 2003, dated 2014)", "target": "T1, trimeric, post-fusion form of sE (dengue envelope protein E, residues 1-395) (Dengue virus type 2, UniProt P12823)", "T1 construct": "post-fusion form of sE, the fragment of E spanning residues 1-395; purchased Hawaii Biotech (Hawaii Biotechnology Group, Inc., Aiea, Hi.); host or cells: Drosophila melanogaster Schneider 2 cells (pMtt vector, prM-E preprotein processed during secretion)", "assay": "fluorescence depolarization binding of stem peptides to sE trimer", "conditions": "read-out: dissociation constant (Kd) of the peptide from sE, fluorescently labeled version of the peptide, sE concentration at half-maximal depolarization", "source_text": "FIG. 10 depicts fluorescence depolarization binding data for a peptide corresponding to residues 396-429 (in the “stem” region) of dengue envelope protein (E). FIG. 10A depicts a Kd analysis of the peptide's binding affinity to the trimeric, post-fusion form of E. FIG. 10B depicts a competitive binding analysis with the fluorescent and unlabeled peptide.\nFIG. 11 depicts a fluorescence depolarization Kd analysis to measure the affinity between a peptide corresponding to residues 413-447 (in the “stem” region) of dengue envelope protein (E). and the trimeric, post-fusion form of E.\nA peptide corresponding to residues 396-429 (in the “stem” region) of dengue envelope protein (E) binds with fairly high affinity and specificity to the trimeric, post-fusion form of sE, the fragment of E spanning residues 1-395, which we crystallized first in the pre-fusion form and then in the post-fusion form. We determined the dissociation constant (Kd) of the peptide from sE from fluorescence depolarization measurements using a fluorescently labeled version of the peptide. The Kd is around 6 μM. This indicates a fairly strong binding. FIG. 10 depicts the fluorescence depolarization results. The Kd is approximately equal to the concentration of sE at which the depolarization (in mP) reaches its half-maximal value (see FIG. 10A). […]", "note": "pKd: −log10 of the molar value. “And” between values parts separate entries of the source, which are not always exact repeats. Equal values may be shown once. At least one structure is not confirmed: it was looked up by name or label, or the drawing left a doubt."}
{"smiles": "CC[C@H](C)[C@H](NC(=O)[C@H](C)NC(=O)[C@H](CCSC)NC(=O)[C@H](CCCNC(=N)N)NC(=O)[C@H](CCCCN)NC(=O)[C@H](C)NC(=O)CNC(=O)[C@H](CCCNC(=N)N)NC(=O)[C@H](CCSC)NC(=O)[C@@H](NC(=O)[C@@H](NC(=O)[C@H](CCC(=O)O)NC(=O)[C@H](Cc1ccccc1)NC(=O)[C@H](CCSC)NC(=O)[C@H](CCC(N)=O)NC(=O)CNC(=O)[C@@H](NC(=O)[C@H](CO)NC(=O)[C@@H](N)CO)[C@@H](C)CC)[C@@H](C)O)[C@@H](C)O)C(=O)N[C@@H](CC(C)C)C(=O)NCC(=O)N[C@@H](CC(=O)O)C(=O)N[C@H](C(=O)N[C@@H](C)C(=O)N[C@@H](Cc1c[nH]c2ccccc12)C(=O)N[C@@H](CC(=O)O)C(=O)N[C@@H](Cc1ccccc1)C(=O)NCC(=O)N[C@@H](CO)C(=O)N[C@@H](CC(C)C)C(=O)NCC(=O)NCC(=O)N[C@H](C(=O)N[C@@H](Cc1ccccc1)C(=O)O)C(C)C)[C@@H](C)O", "note": "[396-429]", "values": [{"measurement": "pKd", "value": "~5.22 and 5.22"}]}
